Measurements reported in the supplement of paper PMC10735217.
Where a name gives a salt, the structure may show the parent alone. The list shows a part of the results. This data set is noisy: repeats of one test often differ as much as different tests do.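 The human kidney-derived cells carry a stably integrated construct of eight TEAD-binding elements driving luciferase, read by luminescence in a drug-repurposing library screen. A compound counts as a hit when its signal is more than five robust Z scores above the plate mean.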

Test system: HEK293A TEAD-LUC reporter
Assay: TEAD-luciferase reporter activity (YAP activation), robust Z score vs plate; higher = stronger YAP/TEAD activation
Details: 24 h

Compound	TEAD-luciferase reporter activity (compound concentration: 200 nM)	TEAD-luciferase reporter activity (compound concentration: 2 uM)	TEAD-luciferase reporter activity (compound concentration: 10 uM)
CC(=O)O[C@]1(C(C)=O)CC[C@H]2[C@@H]3C[C@H](C)C4=CC(=O)C=C[C@]4(C)[C@@]3(F)[C@@H](O)C[C@@]21C [Fluorometholone acetate]	inactive: 0.838	inactive: -0.134	inactive: 2.17
O=C(Nc1ccc(OCc2ccccc2)cc1)C1CC(=O)N(c2ccc(F)cc2)C1 (stereo not drawn)	active: 5.24	inactive: -0.478	inactive: 0.0692
COc1cc(CN(C)CCN(C)CCC(c2ccc(F)cc2)c2ccc(F)cc2)cc(OC)c1OC	inactive: -1.58	inactive: -1.12	inactive: 0.738
CC12C[C@H](O)[C@@]3(F)C(CCC4=CC(=O)C=CC43C)C1CC[C@]2(O)C(=O)CO (stereo partly drawn)	inactive: -1.05	inactive: -0.35	inactive: 0.226
CSCC[C@H](N=C(O)[C@@H]1CCCN1C(=O)CN=C(O)[C@H](CCCCN)N=C(O)[C@H](Cc1c[nH]cn1)N=C(O)C1CSSC[C@H](N)C(O)=NC(CCCN=C(N)N)C(=O)N2CCC[C@H]2C(O)=N[C@@H](CCCN=C(N)N)C(O)=NC(CC(C)C)C(O)=N1)C(=O)N1CCC[C@H]1C(O)=N[C@@H](Cc1ccccc1)C(=O)O (stereo partly drawn)	inactive: -0.0978	–	inactive: -0.0999
CCCCN(CCN(CC)CC)C(=O)c1cccc2ccccc12	inactive: -0.0585	inactive: -0.99	inactive: 1.08
CC(C)C1NC(=O)C(CCCCN)NC(=O)C(CC2=NCc3ccccc32)NC(=O)C(Cc2ccc(O)cc2)NC(=O)C(NC(=O)C(N)Cc2ccc3ccccc3c2)CSSCC(C(=O)NC(C(N)=O)C(C)O)NC1=O (stereo not drawn) [lanreotide]	inactive: -0.73	inactive: -0.316	inactive: -0.215
NC(N)=NCCNS(=O)(=O)c1cccc2cnccc12	inactive: -0.813	inactive: -0.398	inactive: -0.596
Cc1c(C)c2c(c(C)c1O)CCC(C)(CC[P+](c1ccccc1)(c1ccccc1)c1ccccc1)O2 (stereo not drawn)	inactive: 0.114	inactive: 0.372	inactive: 0.0917
COc1cc([C@@H](O)[C@@H](CC2Cc3ccccc3C2)Cn2ccc(CCC(=O)O)c2)cc(OC)c1C	inactive: -1.63	inactive: -0.693	inactive: -0.245
CCCCN1C(=O)C(=O)N(CCCC)C1=S	inactive: 2.04	inactive: -2.09	inactive: 0.332
O=C1N=C(O)NC1(c1ccccc1)c1cccs1 (stereo not drawn)	inactive: -0.358	inactive: -0.73	inactive: -0.399
CC(C)S(=O)(=O)NC[C@H](C)c1ccc(NC(=O)c2cc(F)cc(F)c2)cc1	inactive: -1.5	inactive: -1.66	active: 7.35
NC(=O)[C@@H]1CCCN1C(=O)[C@H](Cc1c[nH]cn1)NC(=O)[C@@H]1CCC(=O)N1 [protirelin]	inactive: 1.8	inactive: -0.495	inactive: -1.33
COc1cc2c(cc1O)C(C1(c3ccccc3Cl)CC1)N(C)CC2 (stereo not drawn)	inactive: 1.59	inactive: -0.88	inactive: 2.33
CC1(C)C(=O)c2ccc(C#N)cc2[C@@H](Oc2ccc(=O)[nH]n2)[C@@H]1O	inactive: 1.35	inactive: 0.211	inactive: -0.487
Nc1ncnc2c1ncn2[C@H]1C=C[C@@H](CO)O1 [CF-1001 metabolite]	inactive: -0.815	inactive: 0.545	inactive: -0.52
C[C@H](N)C(=O)N[C@@]1(C(=O)O)CC[C@H]2[C@H](C(=O)O)[C@H]21	inactive: -0.0805	inactive: -0.11	inactive: -0.645
CC1(C)Oc2ccc(C#N)cc2C2(c3cccc[n+]3[O-])OC12 (stereo not drawn)	inactive: -0.847	inactive: 0.656	inactive: -0.569
CS(=O)(=O)N1CCc2c(-c3cnc(N)nc3)nc(N3CCOCC3)nc21	inactive: -0.913	inactive: -1.24	inactive: 1.21
CCC(CC)n1ncn(-c2ccc(N3CCN(c4ccc(OC[C@@H]5CO[C@@](Cn6cncn6)(c6ccc(F)cc6F)C5)cc4)CC3)cc2)c1=O	inactive: 0.105	inactive: -0.514	inactive: -1.56
O=C1c2cccc3c2[C@H](CCC3)CN1[C@@H]1CN2CCC1CC2 [palonosetron hydrochloride]	–	inactive: -1.28	–
O=C1c2cccc3c2[C@H](CCC3)CN1[C@@H]1CN2CCC1CC2 [Palonosetron hydrochloride]	inactive: 1.36	–	inactive: 0.837
CCCC(Oc1ccc(C(=O)c2cc(CCCC(=O)O)n3ccccc23)cc1)c1ccc(CC(C)C)cc1 (stereo not drawn)	inactive: 0.701	inactive: 0.354	inactive: 1.49
CCNC(=S)NS(=O)(=O)c1cnccc1NC1CCCCCCC1	inactive: -1.07	inactive: 0.217	inactive: -0.715
CC(C)CCN1CCC2(CC1)NC(=O)c1ccccc1O2	active: 5.29	–	inactive: 1.96
CCC(C)SSc1ncc[nH]1 (stereo not drawn)	inactive: 1.08	inactive: 2.8	inactive: 0.753
C[N+](C)([O-])CCCN1c2ccccc2CCc2ccccc21	inactive: -1.19	inactive: 0.566	inactive: 0.211

Compound	TEAD-luciferase reporter activity (compound concentration: 200 nM)	TEAD-luciferase reporter activity (compound concentration: 2 uM)	TEAD-luciferase reporter activity (compound concentration: 10 uM)
COc1ccc([C@@H]2CC(=O)c3c(O)cc(OC4OC(COC5OC(C)C(O)C(O)C5O)C(OC5OC(CO)C(O)C(O)C5O)C(O)C4O)cc3O2)cc1O (stereo partly drawn) [alpha-Glucosylhesperidin]	inactive: -0.868	inactive: -0.58	inactive: -0.288
CCCCCCOc1ccc(/C=N/c2ccc(CCCCCC)cc2)c(O)c1	inactive: -0.642	inactive: -0.474	inactive: 1.55
N#C[C@@H]1CCCN1C(=O)CNC12CC3CC(CC(O)(C3)C1)C2 [Vildagliptin]	inactive: 0.239	inactive: -2.17	inactive: 0.33
N[C@H]1CC[C@H](N[C@@H]2C[C@H]2c2ccccc2)CC1	inactive: -0.447	inactive: 0.333	inactive: 3.23
CCCCc1nc(N)c2nc(-n3nccn3)n(C)c2n1	inactive: 0.0654	inactive: -1.5	inactive: -0.726
O=C1CSC2(CCN(CCCN3c4ccccc4Sc4ccc(Cl)cc43)CC2)N1	inactive: 1.11	inactive: -0.794	inactive: 0.259
Cc1cc(C)c2c3ccccc3n(Cc3cccc(C(C(=O)NC(CO)c4ccccc4)C4CCCC4)c3)c2n1 (stereo not drawn)	inactive: -0.9	inactive: -0.1	active: 5.91
CCCCC/C=C\C/C=C\C/C=C\C/C=C\CCCC(=O)O [Arachidonic acid]	inactive: 0.306	inactive: 1.28	inactive: -0.704
O=c1n(CCCN2CCN(c3cccc(Cl)c3)CC2)nc2ccccn12 [trazodone]	–	inactive: 3.74	–
O=c1n(CCCN2CCN(c3cccc(Cl)c3)CC2)nc2ccccn12	inactive: -0.716	–	inactive: 0.0583
NC1=NCC2c3ccccc3Cc3ccccc3N12 (stereo not drawn) [epinastine, BI, nasal]	inactive: 1.3	–	inactive: 0.329
NC1=NCC2c3ccccc3Cc3ccccc3N12 (stereo not drawn) [epinastine, BI]	–	inactive: 1.54	–
O=C(O)Cc1sc2nc3ccccc3n2c1-c1ccc(Cl)cc1 [Tilomisole]	inactive: -0.0168	inactive: -1.53	inactive: 0.0252
CC(=O)N1CCN(C(=O)c2c[nH]c3ncccc23)CC1	inactive: 1.77	–	inactive: 2.46
CN(C)[C@@H](C(=O)N1CCC[C@H]1c1ncc(-c2ccc(-c3ccc(-c4cnc([C@@H]5CCCN5C(=O)[C@@H](c5ccccc5)N(C)C)[nH]4)cn3)cc2)[nH]1)c1ccccc1	inactive: -0.396	inactive: -0.138	inactive: 0.142
O=C(O)C1CSCN1 (stereo not drawn) [Timonacic]	inactive: 0.653	inactive: -0.552	inactive: -1.26
NC(=O)N1c2ccccc2C2OC2c2ccccc21 (stereo not drawn)	inactive: -1.74	inactive: -0.972	inactive: -0.404
C=CC(C)NC(=S)NNC(=S)NC(C)C=C (stereo not drawn)	inactive: -0.949	inactive: 1.14	inactive: -3.49
CNC(=O)c1ccc(Oc2ccc3c(c2)CCN(C2CCC2)CC3)nc1	inactive: 0.692	inactive: 0.903	inactive: -0.0573
CC(C)NCC(O)c1ccc(O)c(NS(C)(=O)=O)c1 (stereo not drawn)	inactive: -0.885	inactive: -1.83	inactive: 1.41
c1ccc2c(c1)OCC(=C1NCCN1)O2 [idazoxan]	inactive: -1.05	inactive: 4.89	inactive: -2.11
CCOP(=O)(CCCCCCOc1ccc(OC)cc1F)OCC	inactive: -0.687	inactive: -0.204	inactive: 0.391
C[C@H](O)[C@@H](c1ccc2c(c1)OCO2)N1CCOCC1 [Filenadol]	inactive: -1.52	inactive: -1.9	inactive: -1.84
CCCc1ccc(NS(=O)(=O)Cc2ccccc2)c(=O)n1CC(=O)Nc1ccc(N)nc1C	inactive: -1.23	inactive: -1.37	inactive: 0.0175
CC(O)(c1ccc(Cl)cc1)C(C)(O)c1ccc(Cl)cc1 (stereo not drawn)	inactive: -0.957	inactive: -0.31	inactive: 2.52
CC(=O)N1CCC(NC(=O)NC23CC4CC(CC(C4)C2)C3)CC1	inactive: 0.473	inactive: 0.432	inactive: 1.02
CC1CC2(NC(=O)NC2=O)c2cc(F)ccc2O1 (stereo not drawn) [Methosorbinil]	inactive: 0.136	inactive: -0.372	inactive: -0.958

Rewritten as comma-separated lines: part of the list above
Compound,TEAD-luciferase reporter activity (compound concentration: 200 nM),TEAD-luciferase reporter activity (compound concentration: 2 uM),TEAD-luciferase reporter activity (compound concentration: 10 uM)
CC(C)CCN1CCC2(CC1)NC(=O)c1ccccc1O2,active: 5.29,–,inactive: 1.96
CCCCCCOc1ccc(/C=N/c2ccc(CCCCCC)cc2)c(O)c1,inactive: -0.642,inactive: -0.474,inactive: 1.55
CC(=O)N1CCN(C(=O)c2c[nH]c3ncccc23)CC1,inactive: 1.77,–,inactive: 2.46
CC(C)NCC(O)c1ccc(O)c(NS(C)(=O)=O)c1 (stereo not drawn),inactive: -0.885,inactive: -1.83,inactive: 1.41
CCOP(=O)(CCCCCCOc1ccc(OC)cc1F)OCC,inactive: -0.687,inactive: -0.204,inactive: 0.391
